Three substances from PMC10089660 can be followed below.

Amino acid sequences for entries named in this document (tags omitted). Residues count along the entry.
UniProt P27169: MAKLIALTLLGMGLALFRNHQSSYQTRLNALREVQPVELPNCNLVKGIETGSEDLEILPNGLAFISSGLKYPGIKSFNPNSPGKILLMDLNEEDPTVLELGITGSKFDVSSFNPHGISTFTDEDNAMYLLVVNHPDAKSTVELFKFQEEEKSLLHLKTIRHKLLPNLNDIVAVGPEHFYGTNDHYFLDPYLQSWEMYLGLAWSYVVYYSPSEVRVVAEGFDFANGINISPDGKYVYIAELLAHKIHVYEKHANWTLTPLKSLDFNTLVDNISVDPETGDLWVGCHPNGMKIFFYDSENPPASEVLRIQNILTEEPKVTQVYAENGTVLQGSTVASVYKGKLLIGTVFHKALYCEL
UniProt P05164, residues 49-745: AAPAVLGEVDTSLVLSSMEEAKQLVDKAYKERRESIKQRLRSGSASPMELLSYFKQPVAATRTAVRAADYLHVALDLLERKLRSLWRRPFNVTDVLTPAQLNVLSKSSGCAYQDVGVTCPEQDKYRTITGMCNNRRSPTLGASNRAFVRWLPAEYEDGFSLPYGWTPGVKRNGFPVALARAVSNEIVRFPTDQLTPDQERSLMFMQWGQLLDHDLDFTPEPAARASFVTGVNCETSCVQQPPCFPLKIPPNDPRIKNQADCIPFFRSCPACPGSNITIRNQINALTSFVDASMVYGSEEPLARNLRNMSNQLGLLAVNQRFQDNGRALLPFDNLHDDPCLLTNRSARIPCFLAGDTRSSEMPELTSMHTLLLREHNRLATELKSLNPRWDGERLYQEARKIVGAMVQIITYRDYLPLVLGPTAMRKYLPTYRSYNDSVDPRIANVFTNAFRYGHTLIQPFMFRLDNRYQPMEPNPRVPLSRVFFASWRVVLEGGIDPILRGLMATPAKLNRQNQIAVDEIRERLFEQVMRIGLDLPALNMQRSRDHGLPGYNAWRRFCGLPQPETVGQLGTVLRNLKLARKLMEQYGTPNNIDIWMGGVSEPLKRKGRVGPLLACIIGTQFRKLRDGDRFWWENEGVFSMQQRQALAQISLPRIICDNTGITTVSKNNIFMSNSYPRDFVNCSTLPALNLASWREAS
UniProt Q15166: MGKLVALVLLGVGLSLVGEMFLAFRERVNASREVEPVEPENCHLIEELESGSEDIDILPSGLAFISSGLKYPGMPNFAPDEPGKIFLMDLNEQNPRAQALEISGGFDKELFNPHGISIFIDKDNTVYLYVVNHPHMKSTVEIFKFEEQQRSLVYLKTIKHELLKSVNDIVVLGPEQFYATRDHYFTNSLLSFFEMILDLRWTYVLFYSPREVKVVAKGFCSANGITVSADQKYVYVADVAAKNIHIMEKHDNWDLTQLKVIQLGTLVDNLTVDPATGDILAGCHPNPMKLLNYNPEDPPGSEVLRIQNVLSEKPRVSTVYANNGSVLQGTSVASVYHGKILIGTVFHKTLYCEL
UniProt P04275, residues 764-2813: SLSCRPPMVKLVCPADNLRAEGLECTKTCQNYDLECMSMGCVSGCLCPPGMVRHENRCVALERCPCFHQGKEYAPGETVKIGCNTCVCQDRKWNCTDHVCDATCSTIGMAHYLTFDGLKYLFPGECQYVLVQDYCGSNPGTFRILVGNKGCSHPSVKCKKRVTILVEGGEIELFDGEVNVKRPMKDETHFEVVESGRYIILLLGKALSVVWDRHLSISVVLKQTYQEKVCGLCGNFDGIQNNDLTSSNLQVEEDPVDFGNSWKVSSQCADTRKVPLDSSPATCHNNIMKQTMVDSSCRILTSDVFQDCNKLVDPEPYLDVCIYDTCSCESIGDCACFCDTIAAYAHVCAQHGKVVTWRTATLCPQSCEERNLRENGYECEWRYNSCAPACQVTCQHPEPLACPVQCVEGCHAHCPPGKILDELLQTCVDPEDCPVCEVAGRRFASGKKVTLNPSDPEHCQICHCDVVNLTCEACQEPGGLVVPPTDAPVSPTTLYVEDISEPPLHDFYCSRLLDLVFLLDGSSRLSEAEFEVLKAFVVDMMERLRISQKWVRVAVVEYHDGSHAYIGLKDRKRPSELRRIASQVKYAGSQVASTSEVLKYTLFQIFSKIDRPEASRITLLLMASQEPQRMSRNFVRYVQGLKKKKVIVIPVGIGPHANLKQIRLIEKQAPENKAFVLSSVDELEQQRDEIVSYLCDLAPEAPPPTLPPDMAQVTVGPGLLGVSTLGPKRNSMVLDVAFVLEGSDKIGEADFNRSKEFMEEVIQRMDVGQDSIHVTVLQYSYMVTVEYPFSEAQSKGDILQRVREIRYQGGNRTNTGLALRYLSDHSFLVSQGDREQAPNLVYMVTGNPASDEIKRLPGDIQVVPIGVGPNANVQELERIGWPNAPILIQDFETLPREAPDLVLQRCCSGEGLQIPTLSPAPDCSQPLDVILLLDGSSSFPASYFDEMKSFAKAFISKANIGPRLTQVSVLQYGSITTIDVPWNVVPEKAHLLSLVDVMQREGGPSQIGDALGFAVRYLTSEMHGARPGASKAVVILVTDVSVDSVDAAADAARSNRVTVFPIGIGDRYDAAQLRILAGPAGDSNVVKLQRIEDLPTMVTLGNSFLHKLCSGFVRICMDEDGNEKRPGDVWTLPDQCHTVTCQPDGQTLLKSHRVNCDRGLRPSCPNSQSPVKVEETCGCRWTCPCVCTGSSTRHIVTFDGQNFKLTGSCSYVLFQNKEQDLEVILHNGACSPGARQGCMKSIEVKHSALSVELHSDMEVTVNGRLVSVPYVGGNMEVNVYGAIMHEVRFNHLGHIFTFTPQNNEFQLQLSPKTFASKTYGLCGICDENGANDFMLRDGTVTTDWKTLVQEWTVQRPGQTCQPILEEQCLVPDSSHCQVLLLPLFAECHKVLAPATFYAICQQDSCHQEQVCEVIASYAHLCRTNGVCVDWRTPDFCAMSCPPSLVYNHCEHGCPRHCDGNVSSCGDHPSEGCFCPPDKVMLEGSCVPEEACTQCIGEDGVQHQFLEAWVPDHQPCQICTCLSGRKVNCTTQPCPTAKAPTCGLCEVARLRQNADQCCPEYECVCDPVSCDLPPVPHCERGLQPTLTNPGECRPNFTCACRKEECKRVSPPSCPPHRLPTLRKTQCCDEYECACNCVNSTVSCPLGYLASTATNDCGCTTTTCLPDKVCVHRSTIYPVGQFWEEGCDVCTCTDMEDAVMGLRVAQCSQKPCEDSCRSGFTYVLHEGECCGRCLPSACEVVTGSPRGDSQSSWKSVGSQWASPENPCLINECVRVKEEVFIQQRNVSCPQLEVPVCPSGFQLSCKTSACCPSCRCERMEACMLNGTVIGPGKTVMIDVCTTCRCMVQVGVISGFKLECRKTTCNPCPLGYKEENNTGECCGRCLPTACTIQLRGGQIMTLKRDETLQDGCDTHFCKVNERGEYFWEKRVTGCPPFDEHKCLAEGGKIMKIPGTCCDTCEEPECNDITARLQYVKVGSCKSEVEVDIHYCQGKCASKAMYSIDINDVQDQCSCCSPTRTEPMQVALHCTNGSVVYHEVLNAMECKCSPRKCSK

These are yes or no findings as the source states them, for the method shown. In cells and extracts the contact can be indirect. Some entries that bind do so weakly or less than the wild type.

This assay deals with paraoxonase 1 (PON1) (human (endogenous in human cancer cell lines)) (UniProt P27169). Kind of assay: cross-linking + co-IP; cells cross-linked with 1 mM EGS, 45 min, 4 °C; cross-linking-mediated coimmunoprecipitation with PON1 antibody; multiplexed capture beads for PON3, VWF and MPO, detection with biotinylated PON1 antibody and streptavidin-phycoerythrin (Bio-Plex 3D); whole cell lysates, golgi fractions and secretomes of parental, EGFR-TKI-treated cells and DR clones; also after SREBP2 RNAi.
For the substance “myeloperoxidase (MPO) (from UniProt P05164 49-745)”, the binding entry was “binds”.
As for “paraoxonase 3 (PON3) (from UniProt Q15166 1-354)”, the binding result is reported as “binds”.
The value for “von Willebrand factor (VWF) (from UniProt P04275 764-2813)” was “binds”.
